Data from article PMC6018636, “Mutually exclusive acetylation and ubiquitylation of the splicing factor SRSF5 control tumor growth” (Nature Communications, 2018).

Biological target: T1, Flag-CCAR1L (long isoform of cell cycle and apoptosis regulator 1) (human) (UniProt Q8IX12)
T1 sequence: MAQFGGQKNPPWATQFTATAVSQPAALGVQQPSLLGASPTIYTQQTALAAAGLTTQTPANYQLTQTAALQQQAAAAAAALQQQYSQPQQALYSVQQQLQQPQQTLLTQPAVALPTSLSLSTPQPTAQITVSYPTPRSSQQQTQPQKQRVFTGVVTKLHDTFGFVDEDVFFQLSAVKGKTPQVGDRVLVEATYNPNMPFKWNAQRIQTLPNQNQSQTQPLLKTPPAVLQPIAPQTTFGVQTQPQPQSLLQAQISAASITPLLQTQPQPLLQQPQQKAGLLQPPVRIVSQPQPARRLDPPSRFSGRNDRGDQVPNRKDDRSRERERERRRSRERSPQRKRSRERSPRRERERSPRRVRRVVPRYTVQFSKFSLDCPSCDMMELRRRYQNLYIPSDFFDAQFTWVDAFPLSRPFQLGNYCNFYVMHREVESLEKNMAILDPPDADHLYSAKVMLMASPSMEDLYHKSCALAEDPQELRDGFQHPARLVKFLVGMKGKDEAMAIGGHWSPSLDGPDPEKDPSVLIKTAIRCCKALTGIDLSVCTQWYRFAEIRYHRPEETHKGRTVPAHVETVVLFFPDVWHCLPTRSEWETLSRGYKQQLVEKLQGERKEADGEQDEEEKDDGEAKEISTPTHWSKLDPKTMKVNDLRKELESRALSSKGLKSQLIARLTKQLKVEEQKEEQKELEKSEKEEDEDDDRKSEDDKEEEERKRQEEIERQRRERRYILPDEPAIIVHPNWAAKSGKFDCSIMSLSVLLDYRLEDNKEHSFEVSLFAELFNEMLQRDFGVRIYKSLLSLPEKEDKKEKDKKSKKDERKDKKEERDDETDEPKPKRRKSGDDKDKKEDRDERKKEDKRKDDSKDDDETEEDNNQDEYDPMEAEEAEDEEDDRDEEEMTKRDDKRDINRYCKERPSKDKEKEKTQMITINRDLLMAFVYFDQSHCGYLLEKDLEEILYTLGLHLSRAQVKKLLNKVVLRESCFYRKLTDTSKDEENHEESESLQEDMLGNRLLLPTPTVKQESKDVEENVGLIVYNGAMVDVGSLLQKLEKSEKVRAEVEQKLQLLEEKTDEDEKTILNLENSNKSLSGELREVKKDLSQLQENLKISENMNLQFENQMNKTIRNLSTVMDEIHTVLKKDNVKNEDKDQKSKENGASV
Experiment: co-IP; lysates of transfected A549 cells, immunoprecipitation with the indicated antibodies and immunoblotting; for Myc-SRSF5 with Flag-Tip60 the cells were at 2.5 or 25 mM glucose

## HA-CDKN2A
  binding: binds

No constants are given. Whether binding was seen depends on the method and setting. Binding seen in cells or lysates may run through a third protein. A result given as binding can be weak or reduced; the word gives no strength. Where a sequence is shown, tags or fusion partners need not be part of it.
